Test results from US20200131270A1, “COMBINATION USE OF INHIBITOR TARGETING PD-1/PD-L1 AND COX-2 INHIBITOR” (priority 2017, published 2020).
For at least one compound, name, drawing or mass did not settle the structure.

What was measured:
Format in all cases: cell-based
canine PBMCs [1] = assay: Cytokine production from canine PBMCs stimulated with SEB and anti-CD28 (ELISA); conditions: meloxicam 5 μM; SEB + anti-CD28, 3 days
canine PBMCs [2] = assay: PGE2 production from stimulated canine PBMCs; conditions: meloxicam 5 μM; SEB + anti-CD28, 3 days
[3] = tested on: PBMCs derived from cattle experimentally infected with M. avium subsp. paratuberculosis; assay: PGE2 production by J-PPD stimulated PBMCs (ELISA); conditions: J-PPD 1 μg/ml + meloxicam 1000 nM, 5 days
[4] = tested on: PBMCs derived from cattle experimentally infected with M. avium subsp. paratuberculosis; conditions: J-PPD 1 μg/ml + meloxicam 1000 nM, 5 days
[5] = tested on: PBMCs derived from BLV-infected cattle; assay: PGE2 production by BLV antigen stimulated PBMCs (ELISA); conditions: BLV antigen 2% + meloxicam 1,000 nM, 6 days; AL and PL cattle
[6] = tested on: PBMCs derived from BLV-infected cattle

In the case of Cc1cnc(NC(=O)C2=C(O)c3ccccc3S(=O)(=O)N2C)s1 [meloxicam], the “IL-2 production from canine PBMCs” value (canine PBMCs [1]) is reported as “increased significantly”, the “PGE2 production from PBMCs” value (canine PBMCs [2]) is reported as “decreased significantly” and the PGE2 production [3] is reported as “inhibited significantly”. For the same molecule, the IFN-γ production [4] was “significant increase”, the TNF-α production [4] was “significant increase” and the “proliferation rate of CD8^+ cells” value [4] was “significant increase”. The PGE2 production [5] was “significantly inhibited”, the IFN-γ production [6] was “significant increase” and the TNF-α production [6] was “significant increase”. The “proliferation rate of CD4^+ cells” value [6] was “significant increase” and the “proliferation rate of CD8^+ cells” value [6] was “significant increase”.
